# Reference: the supplement of paper PMC4604168 (melanoma cell lines)
# The other results are listed elsewhere or left out. Single values are uncertain, as repeats are few or missing.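 Cells were imaged in 1,536-well plates, and nuclei stained with an antibody against cleaved PARP were counted against all DNA-stained nuclei to give the apoptosis fraction. Screening doses were chosen to leave most cells alive, and resting and induced cleaved-PARP levels differ strongly between cell lines.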
# System: RPMI7951
# Assay: cleaved PARP positive nuclei fraction relative to DMSO control; melanoma cells; higher = more apoptosis
# Settings: library dose: low library concentration; 72 h
row,Compound,cleaved PARP positive nuclei fraction
1,"COc1ccc2c(c1)CCC1C2CCC2(C)C(NCCCCCCN3C(=O)C=CC3=O)CCC12 (stereo unspecified) + COc1cc(N2CCC(N3CCN(C)CC3)CC2)ccc1Nc1ncc(Cl)c(Nc2ccccc2S(=O)(=O)C(C)C)n1 [NVP-TAE684] (first compound 0.4 µM, partner dose 0.08 µM)",109%
2,"O=C(O)C(=O)Nc1sc2c(c1C(=O)O)CCNC2 + COc1cc(N2CCC(N3CCN(C)CC3)CC2)ccc1Nc1ncc(Cl)c(Nc2ccccc2S(=O)(=O)C(C)C)n1 [NVP-TAE684] (first compound 1.66667 µM, partner dose 0.08 µM)",95.8%
3,"CCCCCCCCCCCC1=C(O)C(=O)C=C(O)C1=O [Embelin] + O=c1cc(-c2cccc3c2Sc2ccccc2S3)oc(N2CCOCC2)c1 [KU55933] (first compound 1.2 µM, partner dose 1 µM)",97.2%
4,"COc1cc2ncnc(Nc3ccc(Oc4ccccc4)cc3)c2cc1OC + CC(C)CCN1c2nc(Nc3cc(F)c(O)c(F)c3)ncc2N(C)C(=O)C1C [BID1870] (first compound 2 µM, partner dose 0.2 µM)",85.2%
5,"N#Cc1c(O)c2c(-c3ccc(-c4ccccc4O)cc3)csc2[nH]c1=O + COC(=O)c1sccc1S(=O)(=O)Nc1ccc(Nc2ccccc2)cc1OC [GSK0660] (first compound 2 µM, partner dose 1 µM)",162%
6,"NCC(=O)Nc1ccc(-n2nc(C(F)(F)F)cc2-c2ccc3c(ccc4ccccc43)c2)cc1 + CN(NC(=O)CC(=O)NN(C)C(=S)c1ccccc1)C(=S)c1ccccc1 [STA4783] (first compound 1 µM, partner dose 0.006 µM)",103%
7,"NCC(=O)Nc1ccc(-n2nc(C(F)(F)F)cc2-c2ccc3c(ccc4ccccc43)c2)cc1 + COc1cc(N2CCC(N3CCN(C)CC3)CC2)ccc1Nc1ncc(Cl)c(Nc2ccccc2S(=O)(=O)C(C)C)n1 [NVP-TAE684] (first compound 1 µM, partner dose 0.08 µM)",84.2%
8,"CCc1ccc(CCOc2ccc(CC3SC(=O)NC3=O)cc2)nc1 (stereo unspecified) [pioglitazone] + O=C(O)C(=O)Nc1sc2c(c1C(=O)O)CCNC2 [TCS401] (first compound 2 µM, partner dose 1.66667 µM)",41.2%
9,"CCN(CC)CCCCNc1ncc2cc(-c3cc(OC)cc(OC)c3)c(NC(=O)NC(C)(C)C)nc2n1 + Oc1cc(-c2nc(-c3ccccc3)[nH]c2-c2ccncc2)ccc1Cl [L779450] (first compound 0.1 µM, partner dose 0.2 µM)",194%
10,"O=C1NC(=O)/C(=C/c2ccc(-c3ccc(F)cc3O)o2)S1 + Cc1cc([N+](=O)[O-])ccc1NS(=O)(=O)c1cc(Cl)ccc1Cl [FH535] (first compound 1 µM, partner dose 1 µM)",77.7%
11,"c1cc(-c2cnn3cc(-c4ccc(OCCN5CCCCC5)cc4)cnc23)ccn1 [Dorsomorphin] + CCCCCCCCCCCC1=C(O)C(=O)C=C(O)C1=O [Embelin] (first compound 0.4 µM, partner dose 1.2 µM)",153%
12,"COC(=O)c1sccc1S(=O)(=O)Nc1ccc(Nc2ccccc2)cc1OC + O=C(O)C(=O)Nc1sc2c(c1C(=O)O)CCNC2 [TCS401] (first compound 1 µM, partner dose 1.66667 µM)",82.7%
13,"O=C(Nc1ccccc1)c1cc([N+](=O)[O-])ccc1Cl + COc1ccc(-c2ccc3c(N4CCOCC4)nc(N4C[C@@H](C)O[C@@H](C)C4)nc3n2)cc1CO [KU0063794] (first compound 2 µM, partner dose 0.02 µM)",78.7%
14,"O=C(O)c1ccc(-c2c[nH]c3ncc(-c4ccccc4)cc23)cc1C1CCCC1 + COc1cc2c(Oc3ccc4[nH]c(C)cc4c3F)ncnc2cc1OCCCN1CCCC1 [cediranib] (first compound 0.16 µM, partner dose 0.4 µM)",37%
15,"CN(C)S(=O)(=O)c1ccc2c(c1)/C(=C/c1cc3c([nH]1)CCCC3)C(=O)N2 + CN(NC(=O)CC(=O)NN(C)C(=S)c1ccccc1)C(=S)c1ccccc1 [STA4783] (first compound 0.4 µM, partner dose 0.006 µM)",71.6%
16,"O=C(O)c1ccc(-c2c[nH]c3ncc(-c4ccccc4)cc23)cc1C1CCCC1 + NCC(=O)Nc1ccc(-n2nc(C(F)(F)F)cc2-c2ccc3c(ccc4ccccc43)c2)cc1 [OSU03012] (first compound 0.16 µM, partner dose 1 µM)",102%
17,"CN(C)S(=O)(=O)c1ccc2c(c1)/C(=C/c1cc3c([nH]1)CCCC3)C(=O)N2 + COc1cc2c(Oc3ccc4[nH]c(C)cc4c3F)ncnc2cc1OCCCN1CCCC1 [cediranib] (first compound 0.4 µM, partner dose 0.4 µM)",94.7%
18,"COC(=O)c1sccc1S(=O)(=O)Nc1ccc(Nc2ccccc2)cc1OC + Oc1cc(-c2nc(-c3ccccc3)[nH]c2-c2ccncc2)ccc1Cl [L779450] (first compound 1 µM, partner dose 0.2 µM)",81.9%
19,"O=C1NC(=O)/C(=C/c2ccc(-c3ccc(F)cc3O)o2)S1 + CCCCCCCCCCCC1=C(O)C(=O)C=C(O)C1=O [Embelin] (first compound 1 µM, partner dose 1.2 µM)",405%
20,"COc1cc(N2CCC(N3CCN(C)CC3)CC2)ccc1Nc1ncc(Cl)c(Nc2ccccc2S(=O)(=O)C(C)C)n1 + CC(C)CCN1c2nc(Nc3cc(F)c(O)c(F)c3)ncc2N(C)C(=O)C1C [BID1870] (first compound 0.08 µM, partner dose 0.2 µM)",108%
21,"CN(C)S(=O)(=O)c1ccc2c(c1)/C(=C/c1cc3c([nH]1)CCCC3)C(=O)N2 + O=C(O)c1ccc(-c2c[nH]c3ncc(-c4ccccc4)cc23)cc1C1CCCC1 [GSK650394] (first compound 0.4 µM, partner dose 0.16 µM)",169%
22,"COc1cc2ncnc(Nc3ccc(Oc4ccccc4)cc3)c2cc1OC + O=C1NC(=O)/C(=C/c2ccc(-c3ccc(F)cc3O)o2)S1 [AS252424] (first compound 2 µM, partner dose 1 µM)",47.5%
23,"CCN(CC)CCCCNc1ncc2cc(-c3cc(OC)cc(OC)c3)c(NC(=O)NC(C)(C)C)nc2n1 + COc1cc(N2CCC(N3CCN(C)CC3)CC2)ccc1Nc1ncc(Cl)c(Nc2ccccc2S(=O)(=O)C(C)C)n1 [NVP-TAE684] (first compound 0.1 µM, partner dose 0.08 µM)",165%
24,"O=C(Nc1ccccc1)c1cc([N+](=O)[O-])ccc1Cl + Cc1cc([N+](=O)[O-])ccc1NS(=O)(=O)c1cc(Cl)ccc1Cl [FH535] (first compound 2 µM, partner dose 1 µM)",75.1%
25,"COc1ccc(-c2ccc3c(N4CCOCC4)nc(N4C[C@@H](C)O[C@@H](C)C4)nc3n2)cc1CO + Cn1cc(/C=C2\C(=O)Nc3cccnc32)c2ccccc21 [GW441756] (first compound 0.02 µM, partner dose 0.4 µM)",243%
26,"COc1cc2c(Oc3ccc4[nH]c(C)cc4c3F)ncnc2cc1OCCCN1CCCC1 [cediranib] + O=c1cc(-c2cccc3c2Sc2ccccc2S3)oc(N2CCOCC2)c1 [KU55933] (first compound 0.4 µM, partner dose 1 µM)",77.6%

# Part of the list above, bar-delimited.
row | Compound | cleaved PARP positive nuclei fraction
2 | O=C(O)C(=O)Nc1sc2c(c1C(=O)O)CCNC2 + COc1cc(N2CCC(N3CCN(C)CC3)CC2)ccc1Nc1ncc(Cl)c(Nc2ccccc2S(=O)(=O)C(C)C)n1 [NVP-TAE684] (first compound 1.66667 µM, partner dose 0.08 µM) | 95.8%
17 | CN(C)S(=O)(=O)c1ccc2c(c1)/C(=C/c1cc3c([nH]1)CCCC3)C(=O)N2 + COc1cc2c(Oc3ccc4[nH]c(C)cc4c3F)ncnc2cc1OCCCN1CCCC1 [cediranib] (first compound 0.4 µM, partner dose 0.4 µM) | 94.7%
